Assay in all cases: affinity purification with mass spectrometry
Assay [1] addresses T1, Halo-SETD2C (1404-2564) (human) (UniProt Q9BYW2).
T1 sequence: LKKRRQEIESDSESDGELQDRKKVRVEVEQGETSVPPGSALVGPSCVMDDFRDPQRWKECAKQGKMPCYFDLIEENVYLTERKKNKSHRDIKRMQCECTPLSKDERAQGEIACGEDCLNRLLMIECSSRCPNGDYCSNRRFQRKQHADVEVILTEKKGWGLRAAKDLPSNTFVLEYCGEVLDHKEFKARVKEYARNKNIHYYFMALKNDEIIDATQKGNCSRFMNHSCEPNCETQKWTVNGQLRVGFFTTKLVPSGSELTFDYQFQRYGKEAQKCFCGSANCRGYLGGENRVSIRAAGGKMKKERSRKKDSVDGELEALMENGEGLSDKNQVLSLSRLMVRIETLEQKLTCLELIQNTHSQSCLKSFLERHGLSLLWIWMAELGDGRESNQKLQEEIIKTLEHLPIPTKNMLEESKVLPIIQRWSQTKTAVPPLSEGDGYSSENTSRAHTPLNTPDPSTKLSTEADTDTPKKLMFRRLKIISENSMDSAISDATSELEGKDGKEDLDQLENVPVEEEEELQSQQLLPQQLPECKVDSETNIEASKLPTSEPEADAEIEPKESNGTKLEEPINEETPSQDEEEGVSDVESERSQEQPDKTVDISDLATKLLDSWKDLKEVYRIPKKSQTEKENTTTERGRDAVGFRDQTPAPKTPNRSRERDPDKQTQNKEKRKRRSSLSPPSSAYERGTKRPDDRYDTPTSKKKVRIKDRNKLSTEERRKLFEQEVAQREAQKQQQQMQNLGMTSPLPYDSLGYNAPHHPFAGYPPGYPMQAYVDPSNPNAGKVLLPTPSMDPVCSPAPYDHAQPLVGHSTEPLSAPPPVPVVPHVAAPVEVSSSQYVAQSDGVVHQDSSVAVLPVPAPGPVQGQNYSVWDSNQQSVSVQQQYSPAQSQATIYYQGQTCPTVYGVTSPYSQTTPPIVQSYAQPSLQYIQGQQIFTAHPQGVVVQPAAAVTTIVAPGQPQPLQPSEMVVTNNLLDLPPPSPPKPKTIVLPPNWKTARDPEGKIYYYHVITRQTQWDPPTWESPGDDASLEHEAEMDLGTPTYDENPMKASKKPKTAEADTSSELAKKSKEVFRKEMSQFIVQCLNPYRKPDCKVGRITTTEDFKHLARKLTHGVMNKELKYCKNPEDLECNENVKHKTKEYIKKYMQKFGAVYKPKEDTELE

Assay [2] addresses T2, Halo-SETD2CΔ2114-2263 (human) (UniProt Q9BYW2).
T2 sequence: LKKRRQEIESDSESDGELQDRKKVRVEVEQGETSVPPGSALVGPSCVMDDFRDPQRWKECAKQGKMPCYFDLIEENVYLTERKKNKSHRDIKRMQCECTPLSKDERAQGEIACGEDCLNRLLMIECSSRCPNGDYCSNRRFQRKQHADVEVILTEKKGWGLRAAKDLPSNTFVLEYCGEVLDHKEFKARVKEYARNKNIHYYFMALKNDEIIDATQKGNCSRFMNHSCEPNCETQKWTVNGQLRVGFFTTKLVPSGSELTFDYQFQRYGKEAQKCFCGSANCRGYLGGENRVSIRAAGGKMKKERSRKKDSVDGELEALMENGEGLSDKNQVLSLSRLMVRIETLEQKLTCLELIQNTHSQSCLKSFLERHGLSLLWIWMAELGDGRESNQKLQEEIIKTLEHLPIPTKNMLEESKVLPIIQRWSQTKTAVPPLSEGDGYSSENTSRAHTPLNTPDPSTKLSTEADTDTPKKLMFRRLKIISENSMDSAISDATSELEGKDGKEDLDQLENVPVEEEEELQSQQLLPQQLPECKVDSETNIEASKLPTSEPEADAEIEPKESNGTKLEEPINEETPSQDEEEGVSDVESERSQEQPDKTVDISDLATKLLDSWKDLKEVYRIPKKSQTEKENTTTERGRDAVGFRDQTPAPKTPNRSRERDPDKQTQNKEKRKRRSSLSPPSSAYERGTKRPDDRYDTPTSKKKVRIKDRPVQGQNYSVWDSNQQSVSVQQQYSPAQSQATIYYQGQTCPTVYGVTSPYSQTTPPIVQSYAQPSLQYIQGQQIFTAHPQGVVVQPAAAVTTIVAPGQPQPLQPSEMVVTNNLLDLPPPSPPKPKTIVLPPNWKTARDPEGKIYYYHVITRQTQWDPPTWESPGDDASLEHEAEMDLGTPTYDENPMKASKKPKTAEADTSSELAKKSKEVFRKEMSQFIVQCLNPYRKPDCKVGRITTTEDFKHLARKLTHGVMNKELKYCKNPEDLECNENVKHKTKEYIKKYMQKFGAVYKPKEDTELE

In assay [3] the target is T3, Halo-tagged SETD2 SHI domain (2114-2263) (human) (UniProt Q9BYW2).
T3 sequence: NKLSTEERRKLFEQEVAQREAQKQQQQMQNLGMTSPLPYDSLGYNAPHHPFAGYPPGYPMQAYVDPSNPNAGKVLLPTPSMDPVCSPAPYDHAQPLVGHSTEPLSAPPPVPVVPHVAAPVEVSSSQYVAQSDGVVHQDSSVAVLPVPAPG

Assay [4] has as its target T4, Halo-tagged SETD2 fragment 1964-2113 (human) (UniProt Q9BYW2).
T4 sequence: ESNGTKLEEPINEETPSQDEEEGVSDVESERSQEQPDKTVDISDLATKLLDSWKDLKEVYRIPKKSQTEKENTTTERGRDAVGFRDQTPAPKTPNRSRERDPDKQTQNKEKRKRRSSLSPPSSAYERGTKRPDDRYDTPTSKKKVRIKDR

In assay [5] the target is T5, Halo-tagged SETD2 fragment 1964-2263 (human) (UniProt Q9BYW2).
T5 sequence: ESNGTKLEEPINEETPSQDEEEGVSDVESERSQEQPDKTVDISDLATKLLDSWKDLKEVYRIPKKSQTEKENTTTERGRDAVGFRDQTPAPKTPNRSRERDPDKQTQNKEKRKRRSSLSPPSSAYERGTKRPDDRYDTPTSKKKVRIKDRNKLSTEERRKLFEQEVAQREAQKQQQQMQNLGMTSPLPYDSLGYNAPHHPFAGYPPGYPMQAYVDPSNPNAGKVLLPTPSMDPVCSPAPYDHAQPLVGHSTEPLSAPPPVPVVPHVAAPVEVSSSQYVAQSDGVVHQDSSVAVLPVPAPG

Assay [6] deals with T6, Halo-tagged SETD2 fragment 2164-2213 (human) (UniProt Q9BYW2).
T6 sequence: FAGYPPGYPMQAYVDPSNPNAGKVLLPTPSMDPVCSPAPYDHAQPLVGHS

A further assay addresses T7, Halo-ySet2 (yeast) (UniProt P46995).
T7 sequence: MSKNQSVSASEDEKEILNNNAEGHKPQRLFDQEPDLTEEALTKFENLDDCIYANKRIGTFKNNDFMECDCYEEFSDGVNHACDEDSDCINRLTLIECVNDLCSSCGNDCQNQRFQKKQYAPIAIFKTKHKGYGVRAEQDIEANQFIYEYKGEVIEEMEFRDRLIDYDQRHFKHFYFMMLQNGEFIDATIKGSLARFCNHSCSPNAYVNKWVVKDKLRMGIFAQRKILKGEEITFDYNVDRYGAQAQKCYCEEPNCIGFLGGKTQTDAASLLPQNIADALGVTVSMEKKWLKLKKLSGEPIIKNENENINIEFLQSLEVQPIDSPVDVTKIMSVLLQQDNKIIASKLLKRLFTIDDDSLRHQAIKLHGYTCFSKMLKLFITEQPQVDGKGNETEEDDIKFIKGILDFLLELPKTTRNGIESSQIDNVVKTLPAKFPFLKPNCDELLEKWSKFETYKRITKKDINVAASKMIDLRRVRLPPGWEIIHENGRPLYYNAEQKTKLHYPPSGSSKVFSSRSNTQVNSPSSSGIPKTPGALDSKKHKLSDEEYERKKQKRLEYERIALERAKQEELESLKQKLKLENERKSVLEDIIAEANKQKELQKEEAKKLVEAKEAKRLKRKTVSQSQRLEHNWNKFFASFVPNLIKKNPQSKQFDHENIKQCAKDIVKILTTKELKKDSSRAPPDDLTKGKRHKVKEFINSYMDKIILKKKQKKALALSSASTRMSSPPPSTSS

Results are given in words; binding and its absence hold for the method and conditions named. In cells and extracts the contact can be indirect. Here binding means that the protein was enriched with, or labelled near, the bait; the list need not be complete. For some of these results: No binding means not detected with the bait. For some of these results: Sequences can lack the tags named with a protein.

B1: hnRNP L (endogenous) (protein, UniProt P14866 1-589)
chain: MSRRLLPRAEKRRRRLEQRQQPDEQRRRSGAMVKMAAAGGGGGGGRYYGGGSEGGRAPKRLKTDNAGDQHGGGGGGGGGAGAAGGGGGGENYDDPHKTPASPVVHIRGLIDGVVEADLVEALQEFGPISYVVVMPKKRQALVEFEDVLGACNAVNYAADNQIYIAGHPAFVNYSTSQKISRPGDSDDSRSVNSVLLFTILNPIYSITTDVLYTICNPCGPVQRIVIFRKNGVQAMVEFDSVQSAQRAKASLNGADIYSGCCTLKIEYAKPTRLNVFKNDQDTWDYTNPNLSGQGDPGSNPNKRQRQPPLLGDHPAEYGGPHGGYHSHYHDEGYGPPPPHYEGRRMGPPVGGHRRGPSRYGPQYGHPPPPPPPPEYGPHADSPVLMVYGLDQSKMNCDRVFNVFCLYGNVEKVKFMKSKPGAAMVEMADGYAVDRAITHLNNNFMFGQKLNVCVSKQPAIMPGQSYGLEDGSCSYKDFSESRNNRFSTPEQAAKNRIQHPSNVLHFFNAPLEVTEENFFEICDELGVKRPSSVKVFSGKSERSSSGLLEWESKSDALETLGFLNHYQMKNPNGPYPYTLKLCFSTAQHAS
Regarding B1, the binding result in assay [1] is “binds”; in assay [2], “no binding”; in assay [3], “binds”; in assay [4] it was “no binding”; in assay [5] it was “binds”; in assay [6] it was “binds”. In addition, the binding entry with Halo-ySet2 (yeast) was “no binding”.

Values taken from doi:10.1101/2020.06.06.138156 (bioRxiv, 2020).
